In PubChem BioAssay AID1347076 (National Center for Advancing Translational Sciences (NCATS), 2019):
Hit rate of the full screen: of about 400,000 compounds, about 13,000 (3.2%) were called active. Inconclusive results, whose numbers are uncertain, are shown with a selection of clear calls. Calls come from the whole dose curve; as a rule, active = well fitted cell-killing curve with a large enough effect; inconclusive = small, poorly fitted or top-dose-only effect, or effect the other way; inactive = flat fitted curve, though single readings scatter. Potencies beside an inconclusive call are fits to weak or partial responses and may not hold up.
% is set by controls: 0 for no effect and ±100 for the full control effect; potency is the fitted concentration of half-maximal effect.

Experiment: qHTS assay for MDR1-selective chemotherapeutics: Primary screen using the drug-selected MDR subline cells KB-V1; note: nearly all actives have a fitted effect of over 60% in size
Conditions: KB-V1 MDR cells viability, CellTiter-Glo, 72 h; activity change, negative = cytotoxicity: at 46.1 µM (top of the series)
Summary of the method: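 qHTS viability screen in drug-selected KB-V1 MDR cells: 72 h compound treatment at 37 degrees C, ATP luminescence end point.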
With OC(Cn1cncn1)c1ccc(Cl)cc1Cl (stereo unspecified) the Potency was inconclusive: 29.1 µM [cytotoxic, single point]. For CCOc1ccc(Cl)cc1S(=O)(=O)n1cnc2cc(C)c(C)cc21, the Potency was inconclusive: 18.4 µM [cytotoxic, partial curve]. In the case of Cc1ccc(S(=O)(=O)NCCC(=O)Nc2cc(F)ccc2C)cc1C, the Potency is reported as inconclusive: 23.1 µM [cytotoxic, single point]. With Cc1nc(C(F)(F)F)ccc1C(=O)N1CCC1(C)C(=O)NS(=O)(=O)c1ccc(F)cc1F (stereo unspecified) the Potency was “inactive”. In the case of Cc1ccc(S(=O)(=O)NCCC(=O)N2CCN(c3ccccc3)CC2)cc1C, the Potency is reported as inconclusive: 10.3 µM [cytotoxic, partial curve, poor fit]. With O=C(Cn1ncc2ccc(Cl)cc21)NCc1ccc(F)cc1 the Potency was inconclusive: 8.2 µM [rising, partial curve]. For COc1ccc(-n2cc(-c3ccccc3)c3c(NN4CCOCC4)ncnc32)cc1, the Potency was inconclusive: 20.6 µM [cytotoxic, partial curve, poor fit]. For Cc1nc(N2CCN(Cc3ccccc3)CC2)nc2c1C(=O)CC(c1ccco1)C2 (stereo unspecified), the Potency was active: 8.2 µM. In the case of Cc1c(CCOC(=O)C23CC4CC(CC(C4)C2)C3)sc[n+]1CC#N, the Potency is reported as inconclusive: 29.1 µM [cytotoxic, single point]. In the case of O=C(COC(=O)c1ccc(O)cc1O)NC(=O)NCc1ccccc1, the activity change, negative = cytotoxicity is reported as inconclusive: 31.5%. For O=C(c1ccc2c(c1)N(Cc1ccc(F)cc1)C(=O)c1ccccc1S2=O)N1CCC(Cc2ccccc2)CC1 (stereo unspecified), the Potency was inconclusive: 16.4 µM [cytotoxic, single point]. For Cc1ccc(C(=O)C[n+]2ccccc2)cc1, the Potency was inconclusive: 5.8 µM [rising, partial curve]. With O=[N+]([O-])c1ccc(N/N=C\c2cccn2-c2ccccc2)nc1 the Potency was inconclusive: 6.51 µM [cytotoxic, partial curve, poor fit]. With CCCCNCCOCCOc1ccc(C)cc1Br the Potency was active: 16.4 µM. In the case of S=C(Nc1ccc2c(c1)OCO2)N1CCCC1, the Potency is reported as inconclusive: 25.9 µM [rising, single point]. With Cc1onc(-c2ccccc2)c1C(=O)OCCOc1ccc([N+](=O)[O-])cc1[N+](=O)[O-] the Potency was inconclusive: 14.6 µM [cytotoxic, partial curve]. For CCc1ccc(CNC(=O)c2ccc(NC(=O)N3CCCCc4ccccc43)cc2)cc1, the Potency was “inactive”. In the case of O=C(c1cccc(Cl)c1)N1CCC(=O)N([C@H](COCc2ccccc2)Cc2ccccc2)CC1, the Potency is reported as inconclusive: 25.9 µM [cytotoxic, partial curve, poor fit]. For COc1ccc(NC(C)C(=O)N/N=C/c2c(O)ccc3ccccc23)cc1 (stereo unspecified), the Potency was inconclusive: 18.4 µM [cytotoxic, single point]. In the case of CC(=O)N1CCN(c2ccc(NC(=O)c3ccc([N+](=O)[O-])cc3)cc2)CC1, the Potency is reported as “inactive”. For Cc1sc(NC(=O)CN2CCOCC2)c(C(=O)c2ccccc2)c1C, the Potency was inconclusive: 6.51 µM [cytotoxic, partial curve, poor fit]. In the case of Cc1nc(SCc2nc3ccc(Cl)cc3[nH]2)c2oc3ccccc3c2n1, the Potency is reported as “inactive”. In the case of CCCNC(=O)CN(c1ccc(F)cc1)S(=O)(=O)c1ccc2c(c1)OCCO2, the Potency is reported as inconclusive: 8.2 µM [cytotoxic, partial curve]. In the case of O=C(N/N=C/c1ccccc1O)C1(O)c2ccccc2-c2ccccc21, the Potency is reported as “inactive”. With CCNc1cc(N2CCN(S(=O)(=O)c3ccc4c(c3)CCCC4)CC2)ccc1[N+](=O)[O-] the Potency was active: 1.46 µM. For Cc1c(NS(=O)(=O)c2ccc(NC(=O)CCC(=O)O)cc2)c(=O)n(-c2ccccc2)n1C, the Potency was inconclusive: 16.4 µM [rising, single point]. In the case of C/C(=N\NC(=S)Nc1cccc(C)c1)c1ccccc1, the Potency is reported as “inactive”. With Cc1ccc(S(=O)(=O)N2CCCCC2)cc1C(=O)OCC(=O)NC(=O)NC12CC3CC(CC(C3)C1)C2 the Potency was inconclusive: 32.6 µM [cytotoxic, single point]. For COc1ccc(-c2ccc(=O)n(CC(=O)NC3CCc4ccccc43)n2)cc1OC (stereo unspecified), the Potency was inconclusive: 25.9 µM [rising, single point]. In the case of CCC[C@H](CN[C@@H](CNC)[C@H](C)CC)NCCc1cc(C(F)(F)F)cc(C(F)(F)F)c1, the Potency is reported as inconclusive: 23.1 µM [cytotoxic, single point]. With Cc1ccc(N(CC(=O)NC2CCCC2)C(=O)CCC(=O)Nc2nccs2)c(C)c1 the Potency was inconclusive: 18.4 µM [cytotoxic, single point]. For Cn1ccc2cc(-c3ccc4ncnc(NCc5cccs5)c4c3)ccc21, the Potency was inconclusive: 10.3 µM [cytotoxic, partial curve]. In the case of Cc1ccc(F)c(S(=O)(=O)NC(=O)C2(C)CCN2C(=O)C2(c3ccc(Cl)cc3)CCC2)c1 (stereo unspecified), the Potency is reported as inconclusive: 29.1 µM [cytotoxic, single point]. In the case of CCOC(=O)CON1C(=O)C(=O)N(OCC(=O)OCC)[C@H]2CCCC[C@H]21, the Potency is reported as inconclusive: 3.66 µM [rising, partial curve, poor fit]. For Clc1ccccc1OCCNc1nc(NCC2CC2)nc2ccsc12, the Potency was inconclusive: 7.31 µM [cytotoxic, partial curve, poor fit]. For CN(c1ccccc1)S(=O)(=O)c1ccc(Cl)c(C(=O)OCC(=O)c2c(N)n(C)c(=O)n(C)c2=O)c1, the Potency was inconclusive: 25.9 µM [cytotoxic, single point]. For Cc1noc(C)c1S(=O)(=O)Nc1ccc2c(c1)C(=O)N([C@H](C)CO)C[C@H](C)[C@@H](CN(C)Cc1ccc(C(=O)O)cc1)O2, the Potency was “inactive”. For CN(C(=O)c1cccc(NC(=O)Cc2ccc(NC(=O)C3CCCN(C(=O)C4CCCCC4)C3)cc2)c1)C1CC1 (stereo unspecified), the Potency was inconclusive: 0.731 µM [rising, full curve]. With CSc1ncc(Cl)c(C(=O)Nc2ccccc2C)n1 the Potency was “inactive”. For CNC(=O)c1ccccc1NC(=O)c1cccc(S(=O)(=O)N2CCC(C)CC2)c1, the Potency was inconclusive: 8.2 µM [cytotoxic, partial curve]. For O=C(Cn1c(=O)c2cccn2c2ccccc21)Nc1cc(F)ccc1F, the Potency was “inactive”.
